Experiment: Chemical reactivity with L-cysteine in vitro
Details: for Michael addition reaction with L-cysteine: slightly basic condition, in vitro

Row | SMILES | Reaction with L-cysteine under oxidative environments (IBX) | Michael addition reaction with L-cysteine | Reaction with L-cysteine by tyrosinase (tyrosinase from mushroom in PBS)
1 | CCCCCCCC(=O)CCc1ccc(O)c(O)c1 [Compound 25] | efficiently produced cysteine conjugate 37 | no Michael addition took place | generated cysteine conjugate 37
2 | CCCCC/C=C/C(=O)/C=C/c1ccc(O)c(OC)c1 [Compound 18] | – | occurred immediately | –
3 | CCCCCCCC(=O)/C=C/c1ccc(O)c(O)c1 [Compound 27] | – | occurred immediately | –

Reference: patent US10363230B2, “6-shogaol derivatives and activities thereof” (North Carolina Agricultural and Technical State University, priority 2017, dated 2019)
